Data as given in PubChem BioAssay AID1259308 (NCATS, 2017)
Shown is a random part of about 59,000 reagents. Over the whole deposit, about 1,510 (2.6%) were called active. 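Calls use total luciferase alone and ignore viability, so some active siRNAs may act by altering cell number.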 Reagents against one gene are numbered here. Further read-outs or replicates are left out here.

Aim: 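Knock-downs that increase output of a recombinant reporter protein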 (primary screen)
System: human HEK293 embryonic kidney cells stably expressing firefly luciferase (HEK-CMV-Luc2-Hygro)
Reagent: single siRNA against human genes, 0.8 pmol siRNA per well
Time to read-out: 72 h
Measured: 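Reporter luminescence and viable-cell signal on separate replicate plates, given as percent of non-targeting control and median/MAD z-scores, plus per-cell luciferase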
Scale: total luciferase, z-score and total luciferase, % of control: higher = more reporter protein produced
Active means: 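An siRNA counts as active if its total luciferase robust z-score exceeds 3; genes with two or more such siRNAs out of three were retested with fresh siRNAs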
Meaning of the calls: active = raised luciferase; inactive = no rise

How did the screen score HSPE1 #1?
total luciferase, z-score: 1.21; total luciferase, % of control: 106; Call: inactive

What is on record for HSPE1 #2?
total luciferase, z-score: 1.68; total luciferase, % of control: 115; Call: inactive

For HSPE1 #3, what does the deposit list?
total luciferase, z-score: 2.88; total luciferase, % of control: 139; Call: inactive

With ERLEC1 #1, what does the deposit list?
total luciferase, z-score: 1.3; total luciferase, % of control: 108; Call: inactive

Which result is listed for ERLEC1 #2?
total luciferase, z-score: 0.0729; total luciferase, % of control: 83.3; Call: inactive

For ERLEC1 #3, what was measured?
total luciferase, z-score: -0.622; total luciferase, % of control: 69.5; Call: inactive

What did the screen give for CDH6 #1?
total luciferase, z-score: 0.796; total luciferase, % of control: 97.7; Call: inactive

For CDH6 #2, what does the deposit list?
total luciferase, z-score: -0.46; total luciferase, % of control: 72.7; Call: inactive

For CDH6 #3, what does the deposit list?
total luciferase, z-score: -0.287; total luciferase, % of control: 76.2; Call: inactive

For ATP5MF #1, what does the deposit list?
total luciferase, z-score: 0.0905; total luciferase, % of control: 83.7; Call: inactive

For ATP5MF #2, what was measured?
total luciferase, z-score: -0.406; total luciferase, % of control: 73.8; Call: inactive

What did the screen give for ATP5MF #3?
total luciferase, z-score: 1.3; total luciferase, % of control: 108; Call: inactive

2 entries from above, ordered by “total luciferase, z-score”, lowest first.
ERLEC1 #3 → total luciferase, z-score = -0.622; total luciferase, % of control = 69.5; Call = inactive
CDH6 #1 → total luciferase, z-score = 0.796; total luciferase, % of control = 97.7; Call = inactive
